PubChem BioAssay AID602196 | INSERM, 2012
Test: 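Modifiers of cisplatin sensitivity in A549 cells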. Cell system: human A549 lung cancer cells. Reagent: siRNA pair against human genes. Time to read-out: 48 h transfection before cisplatin; time from cisplatin to read-out not stated. Treatment: cisplatin at a dose killing half of control-siRNA cells; exact dose and duration not given. Detection: 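Cisplatin cell death as a shift from the 50% death seen with control siRNA; siRNAs toxic or growth-blocking alone scored 0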. Scale: two-siRNA summed score (-2 to +2): higher = both siRNAs protect from cisplatin killing; -2 means both sensitise. Hit rule: 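siRNAs harmful alone (LDH or WST-1) get 0; others get +1 for less and -1 for more cisplatin killing; genes are active when the two siRNAs give the same sign, summing to ±2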. Meaning of the calls: active = both siRNAs shift cisplatin killing the same way; inactive = no consistent shift, or siRNA harmful alone.
This is one part, drawn at random, of about 23,000 reagents tested. Of all reagents, 455 (2%) got an active call. 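Active includes both protection and sensitisation; some change values fall well beyond the stated -50 to +50 range.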 Not all columns of the deposit are shown. Not given: the amount of reagent.

STEAP1 (GeneID 26872) | two-siRNA summed score (-2 to +2): 0; Outcome: inactive
PMS2P3 (GeneID 5387) | two-siRNA summed score (-2 to +2): 0; Outcome: inactive
LOC440742 (GeneID 440742) | two-siRNA summed score (-2 to +2): 1; Outcome: inactive
PTGS1 (GeneID 5742) | two-siRNA summed score (-2 to +2): 0; Outcome: inactive
TPRG1 (GeneID 285386) | two-siRNA summed score (-2 to +2): 0; Outcome: inactive
MLLT11 (GeneID 10962) | two-siRNA summed score (-2 to +2): 0; Outcome: inactive
RAB8A (GeneID 4218) | two-siRNA summed score (-2 to +2): 0; Outcome: inactive
TMEM74B (GeneID 55321) | two-siRNA summed score (-2 to +2): 0; Outcome: inactive
LOC440391 | two-siRNA summed score (-2 to +2): 0; Outcome: inactive
NUDT11 (GeneID 55190) | two-siRNA summed score (-2 to +2): 0; Outcome: inactive
RBP2 (GeneID 5948) | two-siRNA summed score (-2 to +2): 0; Outcome: inactive
MYL6 (GeneID 4637) | two-siRNA summed score (-2 to +2): 0; Outcome: inactive
TEX35 (GeneID 84066) | two-siRNA summed score (-2 to +2): 0; Outcome: inactive
LOC441867 | two-siRNA summed score (-2 to +2): 0; Outcome: inactive
TEFM (GeneID 79736) | two-siRNA summed score (-2 to +2): 0; Outcome: inactive
SCD (GeneID 6319) | two-siRNA summed score (-2 to +2): 1; Outcome: inactive
TECPR2 (GeneID 9895) | two-siRNA summed score (-2 to +2): 0; Outcome: inactive
OR5H1 (GeneID 26341) | two-siRNA summed score (-2 to +2): 1; Outcome: inactive
LOC440598 | two-siRNA summed score (-2 to +2): 0; Outcome: inactive
NECTIN1 (GeneID 5818) | two-siRNA summed score (-2 to +2): 0; Outcome: inactive
FLJ46041 | two-siRNA summed score (-2 to +2): 0; Outcome: inactive

Look-ups from the entries so far:
For “Outcome”, LOC440391 shows inactive
Under “two-siRNA summed score (-2 to +2)”, TECPR2 (GeneID 9895) has 0
